# Reference: PubChem BioAssay AID1259297 (Sanger Institute, 2017)
# Screen: 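siRNA screen across the kinome seeking drug partners in cells of colorectal cancer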 (primary screen)
# Cell system: human RCM1 colorectal cancer cell line
# Knock-down reagent: siRNA pool against human genes
# Treatment: separate arms: DMSO vehicle, or one anchor drug at a mild dose: BYL719 1 µM, cetuximab 5 µg/ml, trametinib 10 nM
# Read-out: 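Replicate-mean well viability as a share of non-targeting pool control, a robust z-score without drug, and synergy scores for BYL719, cetuximab and trametinib arms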
# Direction: viability z-score, knock-down alone: higher = more viable cells than non-targeting controls; viability, knock-down alone (DMSO): higher = more viable cells; synergy score with trametinib: higher = stronger combined killing with trametinib; synergy score with BYL719: higher = stronger combined killing with BYL719; synergy score with cetuximab: higher = stronger combined killing with cetuximab
# Active means: 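Essential when the viability robust z-score for knock-down alone is below -3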
# Meaning of the calls: active = essential when knocked down alone; inactive = no clear loss of viability alone
# Here is one part, drawn at random, of 794 deposited reagents. Of all reagents, 13 (1.6%) are marked active. 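Calls reflect knock-down without drug only; drug synergy is judged separately, with scores above 0.15 counted as synergy.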 Viability is capped at 1. Not given: the amount of reagent, the time to read-out.
Target gene,"viability z-score, knock-down alone","viability, knock-down alone (DMSO) (fraction of control)",synergy score with trametinib,synergy score with BYL719,synergy score with cetuximab,Call
CHKA (choline kinase alpha),-0.816,0.841,0.0489,-0.0679,-0.00877,inactive
DCLK2 (doublecortin like kinase 2),-0.445,0.875,-0.0885,0.0558,-0.093,inactive
CHD4 (chromodomain helicase DNA binding protein 4),-3.47,0.594,0.0769,-0.108,0.0102,active
CAMK1 (calcium/calmodulin dependent protein kinase I),0.439,0.957,-0.0373,0.0472,0.0472,inactive
MAPK11 (mitogen-activated protein kinase 11),0.803,0.991,0.0541,-0.0812,-0.126,inactive
MAK (male germ cell associated kinase),-0.982,0.825,0.00194,0.0149,-0.0669,inactive
FXR1 (FMR1 autosomal homolog 1),0.504,0.963,-0.0931,-0.0642,-0.151,inactive
LIMK2 (LIM domain kinase 2),0.215,0.936,0.00237,-0.132,-0.174,inactive
FXN (frataxin),0.0641,0.922,0.0373,-0.145,-0.0645,inactive
STK32A (serine/threonine kinase 32A),0.754,0.986,0.0558,-0.0542,-0.13,inactive
AXL (AXL receptor tyrosine kinase),0.9,1,-0.0128,-0.0728,-0.0931,inactive
"PFKFB4 (6-phosphofructo-2-kinase/fructose-2,6-biphosphatase 4)",-0.0997,0.907,0.0632,-0.151,-0.19,inactive
PRKAR2B,-1.51,0.777,0.143,0.0243,-0.0866,inactive
GOLGA5 (golgin A5),0.797,0.99,0.0156,-0.0371,-0.0491,inactive
ACVR2A (activin A receptor type 2A),0.9,1,0.0189,0.0786,-0.0855,inactive
COASY (Coenzyme A synthase),-4.07,0.539,-0.0682,-0.0738,-0.0185,active
MKNK1 (MAPK interacting serine/threonine kinase 1),0.9,1,0.0841,-0.0728,-0.00893,inactive
PCK1 (phosphoenolpyruvate carboxykinase 1),-0.459,0.874,-0.0871,-0.00398,-0.121,inactive
AK2 (adenylate kinase 2),0.9,1,0.0564,-0.0728,-0.118,inactive
KALRN (kalirin RhoGEF kinase),-0.632,0.858,0.121,-0.0852,-0.213,inactive
GRK2 (G protein-coupled receptor kinase 2),0.337,0.948,-0.0464,-0.0273,-0.164,inactive
KSR2 (kinase suppressor of ras 2),0.9,1,-0.0147,-0.0728,0.031,inactive
PDGFRA (platelet derived growth factor receptor alpha),0.9,1,0.0128,-0.0728,-0.118,inactive
MAP3K1 (mitogen-activated protein kinase kinase kinase 1),0.9,1,0.0163,0.0159,-0.118,inactive
FOXP1 (forkhead box P1),-0.623,0.859,0.0684,0.039,-0.109,inactive
HUS1 (HUS1 checkpoint clamp component),0.4,0.954,-0.0897,-0.0588,-0.0932,inactive
PKIB (cAMP-dependent protein kinase inhibitor beta),0.519,0.965,-0.101,-0.106,-0.0642,inactive
PKLR (pyruvate kinase L/R),0.9,1,0.0824,-0.0728,-0.118,inactive
"KIT (KIT proto-oncogene, receptor tyrosine kinase)",0.9,1,-0.0376,-0.0246,-0.118,inactive
PRKD2 (protein kinase D2),0.9,1,-0.0474,-0.0641,-0.0808,inactive
DSTYK (dual serine/threonine and tyrosine protein kinase),-0.0955,0.908,-0.00401,-0.0676,0.0712,inactive
PRKACA (protein kinase cAMP-activated catalytic subunit alpha),0.428,0.956,0.0277,-0.0385,-0.157,inactive
STK40 (serine/threonine kinase 40),-0.0963,0.907,-0.0473,0.0505,0.0155,inactive
EPHB1 (EPH receptor B1),-1.28,0.798,-0.028,-0.088,-0.057,inactive
PIP4K2B (phosphatidylinositol-5-phosphate 4-kinase type 2 beta),-0.573,0.863,0.119,-0.0659,0.00389,inactive
PAK3 (p21 (RAC1) activated kinase 3),0.45,0.958,0.005,0.0718,0.0586,inactive
BRD4 (bromodomain containing 4),0.835,0.994,0.112,-0.0784,-0.0241,inactive
PI4K2B (phosphatidylinositol 4-kinase type 2 beta),-1.88,0.742,0.0259,0.0447,0.0198,inactive
CAMK2A (calcium/calmodulin dependent protein kinase II alpha),-1.12,0.812,-0.0765,-0.0371,-0.143,inactive
RPS6KA2 (ribosomal protein S6 kinase A2),-0.267,0.892,-0.0471,-0.0176,-0.082,inactive
ZAP70 (zeta chain of T cell receptor associated protein kinase 70),-0.0114,0.915,0.0387,-0.123,-0.0886,inactive
NME3 (NME/NM23 nucleoside diphosphate kinase 3),0.883,0.998,0.106,0.0176,-0.00994,inactive
DGKB (diacylglycerol kinase beta),-1.14,0.811,0.0411,-0.0472,-0.115,inactive
ACVR2B (activin A receptor type 2B),0.0594,0.922,0.0208,-0.0589,-0.0779,inactive
CDK11A (cyclin dependent kinase 11A),-1.45,0.782,-0.000809,-0.142,-0.00802,inactive
CDKN2D (cyclin dependent kinase inhibitor 2D),0.104,0.926,0.1,0.0368,0.00853,inactive
CAMK4 (calcium/calmodulin dependent protein kinase IV),-0.278,0.891,-0.0489,-0.01,-0.0408,inactive
NEK6 (NIMA related kinase 6),0.9,1,-0.19,-0.0728,-0.118,inactive
"RELA (RELA proto-oncogene, NF-kB subunit)",0.9,1,0.0577,-0.0728,-0.118,inactive
INSR (insulin receptor),0.9,1,0.00902,-0.0414,-0.111,inactive

A portion taken from the entries so far, as a working copy:
Target gene,"viability z-score, knock-down alone","viability, knock-down alone (DMSO) (fraction of control)",synergy score with trametinib,synergy score with BYL719,synergy score with cetuximab,Call
PRKD2 (protein kinase D2),0.9,1,-0.0474,-0.0641,-0.0808,inactive
DSTYK (dual serine/threonine and tyrosine protein kinase),-0.0955,0.908,-0.00401,-0.0676,0.0712,inactive
PRKACA (protein kinase cAMP-activated catalytic subunit alpha),0.428,0.956,0.0277,-0.0385,-0.157,inactive
STK40 (serine/threonine kinase 40),-0.0963,0.907,-0.0473,0.0505,0.0155,inactive
EPHB1 (EPH receptor B1),-1.28,0.798,-0.028,-0.088,-0.057,inactive
PIP4K2B (phosphatidylinositol-5-phosphate 4-kinase type 2 beta),-0.573,0.863,0.119,-0.0659,0.00389,inactive
